Source: patent EP1693456B1, “METHOD OF IDENTIFYING MODULATORS OF A G PROTEIN-COUPLED RECEPTOR” (Daiichi Sankyo Company, Limited, priority 2003, dated 2011)
Not every detail of the peptide structures is certain; ends, links or a residue may be inferred.

Columns and labels:
[1] = tested on: protein encoded by ph01207; assay: Change in intracellular calcium concentration in ph01207 expression cell line (FLIPR Calcium 3 Assay Kit, FLEXstation); type: cell-based, human; conditions: HA-ph01207#10-6 cell line; for rise in the intracellular Ca^2+ concentration: final concentration 1nM, compared with cells not stimulated
CHO-K1 cell line = assay: Change in intracellular calcium concentration in non-transfected host cell line (negative control cells); type: cell-based, Chinese hamster; conditions: CHO-K1 cell line not transfected with ph01207; final concentration 1nM
[2] = diabetes patients; Bo, A. et al., 2000; cited from earlier work

Row | Structure (SMILES) | rise in the intracellular Ca^2+ concentration [1] | increase in intracellular Ca^2+ concentration (CHO-K1 cell line) | level of increase in the intracellular Ca^2+ concentration compared with that produced by A23187 ([1]; 1 nM versus A23187 10 µM positive control) | increase in insulin amounts [2] | increase in postcibal glucose amount [2]
1 | CSCC[C@H](NC(=O)[C@@H](N)Cc1c[nH]c2ccccc12)C(=O)N[C@@H](CC(=O)O)C(=O)N[C@@H](Cc1ccccc1)C(N)=O [CCK-4] | not observed | no increase | – | – | –
2 | CSCC[C@H](NC(=O)[C@H](Cc1ccc(O)cc1)NC(=O)[C@@H](N)CC(=O)O)C(=O)NCC(=O)N[C@@H](Cc1c[nH]c2ccccc12)C(=O)N[C@@H](CCSC)C(=O)N[C@@H](CC(=O)O)C(=O)N[C@@H](Cc1ccccc1)C(N)=O [CCK-8NS] | not observed | no increase | – | – | –
3 | CSCC[C@H](NC(=O)[C@H](Cc1ccc(OS(=O)(=O)O)cc1)NC(=O)[C@@H](N)CC(=O)O)C(=O)NCC(=O)N[C@@H](Cc1c[nH]c2ccccc12)C(=O)N[C@@H](CCSC)C(=O)N[C@@H](CC(=O)O)C(=O)N[C@@H](Cc1ccccc1)C(N)=O [CCK-8S, cholecystokinin octapeptide sulfated form] | rose | no increase | roughly equal | promoted | suppressed
